Measurements: PubChem BioAssay AID2685 (National Center for Advancing Translational Sciences (NCATS), 2010)
The list shows a part of the results. Further columns of the screen follow, without active or inactive calls. Compounds called inactive in the main read-out are mostly missing here. Words in brackets tell the shape of the fitted curve; partial curves, single points and poor fits give uncertain potencies.

Test: qHTS Assay for Lipid Storage Modulators in Drosophila S3 Cells;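 for cell number change: cells counted by Cell Tracker Red CMTPX staining in the red channel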
Conditions: BODIPY lipid droplet fluorescence, 18-24 h; for cell number change: measured here: cell count max response, cells fed with added oleic acid
In short: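 Drosophila S3 cells loaded with oleic acid (400 uM, as added) and compounds at several concentrations; lipid droplets imaged by 488-nm laser-scanning cytometry, 500–530 nm intensity and object ratio to cell channel. Percent activity normalized to 20 uM Triacsin C.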

[1] = measured here: lipid fluorescence (Fed channel) AC50, cells fed with added oleic acid
[2] = measured here: cell number channel AC50, cells fed with added oleic acid

Compound `Cn1c(COc2ccccc2)nc2ccccc21` has a cell number change of 11.3%.
`O=C(c1ccccc1)c1ccccc1C(=O)N1CCCC1` gave a cell number change of -8.67%.
With `CC1CN(S(=O)(=O)N2CCOCC2)CCN1S(=O)(=O)N1CCOCC1` (stereo not drawn) the cell number change was -47.7% and the AC50 [1] was 29.1 µM [falling, single point].
For `Cc1ccc(C)c(NC(=O)CCc2ccc(S(=O)(=O)NC3CCCCC3)cc2)c1`, the cell number change was 29.4%.
Compound `OCCN1CCN(CC(O)COc2ccc(Cl)cc2)CC1` (stereo not drawn) has a cell number change of -23.3%.
`CCCN(CCC)CCCNC(=O)C1CCN(S(=O)(=O)c2cccc3nsnc23)CC1` gave a cell number change of 4.78%.
With `O=C1NC(Cc2ccccc2)C(=O)N1Cc1cc([N+](=O)[O-])cc2c1OCOC2` (stereo not drawn) the cell number change was 22.2% and the AC50 [2] was 0.517 µM [rising, full curve, poor fit].
In the case of `O=C(CCc1ccc(S(=O)(=O)NCCc2ccccc2)cc1)NCc1ccc2c(c1)OCO2`, the AC50 [1] is reported as 8.2 µM [rising, partial curve].
With `O=C(CCc1ccccc1)Nc1nc2ccc(S(=O)(=O)N3CCOCC3)cc2s1` the cell number change was 80.9% and the AC50 [2] was 20.6 µM [rising, single point].
With `CCN(CC)S(=O)(=O)c1ccc(OCC(=O)NC(=O)Cc2ccccc2)c([N+](=O)[O-])c1` the cell number change was -16.4% and the AC50 [1] was 32.6 µM [falling, partial curve, poor fit].
With `COc1ccccc1NC(=O)NNC(=O)c1ccc2c(c1)NC(=O)C(C)(C)O2` the AC50 [1] was 0.116 µM [rising, single point].
Compound `COc1ccc(CCCc2nnc(SCc3nc4ccccc4c(=O)[nH]3)n2C)cc1C` has a cell number change of 8.7%.
With `Cc1cc(C)c(S(N)(=O)=O)c(C)c1-n1cnnn1` the cell number change was -2.97% and the AC50 [1] was 0.00517 µM [falling, full curve, poor fit].
For `Cc1ccc(C(=O)Nc2nc(C)c(C)s2)o1`, the cell number change was 100%, the AC50 [2] was 18.4 µM [rising, single point] and the AC50 [1] was 23.1 µM [rising, single point].
For `C/C(CC(=O)NCc1ccc(F)cc1)=N\NC(N)=S`, the cell number change was -11.9%, the AC50 [2] was 0.164 µM [falling, full curve, poor fit] and the AC50 [1] was 3.26 µM [falling, full curve].
In the case of `Cc1ccc(S(=O)(=O)NC(=O)NCc2ccccn2)cc1`, the cell number change is reported as 5.21% and the AC50 [1] is reported as 0.651 µM [falling, full curve].
Work on `O=C(O)c1ccccc1N/N=C/c1c(Sc2nnnn2-c2ccccc2)nc2ccccn2c1=O` yielded a cell number change of 15.5%.
For `Cc1ccc(C)c(N)c1`, the AC50 [1] was 25.9 µM [falling, single point].
In the case of `C/C(=N\NC(=O)C1CC1)c1cccc(NC(=O)c2cccc(Cl)c2)c1`, the AC50 [1] is reported as 20.6 µM [falling, partial curve, poor fit].
In the case of `O=C1CCCN2N=C(SCC(=O)Nc3cccc(F)c3)SC2=N1`, the AC50 [2] is reported as 1.84 µM [falling, partial curve] and the AC50 [1] is reported as 29.1 µM [falling, single point].
In the case of `Cc1ccc(C(=O)N/C(=C/c2cccnc2)C(=O)N2CCCCCC2)cc1`, the cell number change is reported as 13% and the AC50 [1] is reported as 6.51 µM [rising, single point].
In the case of `CCN1CCN(Cc2coc3ccc(C)cc3c2=O)CC1`, the cell number change is reported as 9.44% and the AC50 [1] is reported as 18.4 µM [falling, single point].
With `Nc1cccc(Nc2nc(OC(C(F)(F)F)C(F)(F)F)nc(OC(C(F)(F)F)C(F)(F)F)n2)c1` the cell number change was -42.5% and the AC50 [2] was 29.1 µM [falling, single point].
With `COc1ccc(/C=N/NC(=O)c2ccc(O)cc2O)cc1CSc1ccccn1` the cell number change was 6.64% and the AC50 [1] was 8.2 µM [rising, partial curve, poor fit].
With `O=C(c1ccc(N2CCN(C3CC(=O)N(Cc4cccs4)C3=O)CC2)cc1)c1cccnc1` (stereo not drawn) the cell number change was 0.678%, the AC50 [2] was 0.461 µM [rising, full curve, poor fit] and the AC50 [1] was 0.326 µM [rising, partial curve, poor fit].
With `Cc1ccc2nc(=O)c(NNc3ccccc3)cnc2c1` the cell number change was 4.08% and the AC50 [1] was 0.461 µM [rising, full curve].
With `COc1ccc(N(CC(=O)NCc2ccccn2)S(=O)(=O)c2ccccc2[N+](=O)[O-])c(OC)c1` the cell number change was 28.8%, the AC50 [2] was 2.91 µM [rising, full curve, poor fit] and the AC50 [1] was 3.26 µM [rising, partial curve].
With `CCc1cc2c(NCC3CCCO3)ncnc2s1` (stereo not drawn) the cell number change was -35% and the AC50 [2] was 14.6 µM [falling, partial curve].
With `CCCCNC(=O)C1CCN(S(=O)(=O)N2CCOCC2)CC1` the cell number change was -0.0963%.
In the case of `CC(CNC(=O)Cn1ccc(N)nc1=O)c1ccccc1` (stereo not drawn), the cell number change is reported as -5.69% and the AC50 [1] is reported as 0.58 µM [falling, partial curve].
With `Cc1ccc(C)c(N2CCN(C(=O)C3CCCN(S(=O)(=O)c4cnc[nH]4)C3)CC2)c1` (stereo not drawn) the cell number change was -40.2% and the AC50 [1] was 1.3 µM [falling, full curve].
In the case of `O=C(COC(=O)c1cc(-c2cccs2)nn1-c1ccccc1)Nc1ccc(Cl)c([N+](=O)[O-])c1`, the cell number change is reported as 23.2% and the AC50 [1] is reported as 25.9 µM [rising, single point].
In the case of `C/C(=N\NC(=O)c1ccc(Cn2cc(Br)cn2)o1)c1ccc(NC(=O)c2ccoc2C)cc1`, the cell number change is reported as -36.2%, the AC50 [2] is reported as 8.2 µM [falling, partial curve] and the AC50 [1] is reported as 0.651 µM [falling, full curve, poor fit].
In the case of `COc1ccc(NC(=O)CN(C)S(=O)(=O)c2cccc3cccnc23)cc1`, the AC50 [1] is reported as 0.00517 µM [rising, full curve, poor fit].
In the case of `COCC(=O)NC1CCN(C(=O)NCc2ccccc2)CC1`, the cell number change is reported as -40%, the AC50 [2] is reported as 29.1 µM [falling, single point] and the AC50 [1] is reported as 18.4 µM [falling, partial curve].
For `CCC(C)n1cnc2c(c1=O)c1nc3ccccc3nc1n2Cc1ccc2c(c1)OCO2` (stereo not drawn), the cell number change was -36.5%, the AC50 [2] was 16.4 µM [falling, partial curve, poor fit] and the AC50 [1] was 1.84 µM [rising, partial curve].
In the case of `CCCCOc1ccc([N+](=O)[O-])cc1C(=O)O`, the cell number change is reported as 2.6%.
For `CC(C)Oc1ccc(-c2nc(NCC3CCCO3)c3ccccc3n2)cc1` (stereo not drawn), the cell number change was 10.1% and the AC50 [1] was 0.164 µM [rising, full curve, poor fit].
In the case of `COc1ccc(NC(C)=O)cc1NC(C)C(=O)Nc1ccccc1F` (stereo not drawn), the cell number change is reported as 39.7% and the AC50 [2] is reported as 3.66 µM [rising, full curve].
In the case of `CCOc1cc(CNCCO)ccc1OCC(=O)NC(C)(C)C`, the cell number change is reported as 43.6% and the AC50 [1] is reported as 4.11 µM [falling, partial curve].
For `COc1cccc(NC(=O)N2CCC(NC(=O)C(Cc3ccccc3OC)NC(C)=O)CC2)c1` (stereo not drawn), the cell number change was -9.68% and the AC50 [1] was 8.2 µM [falling, partial curve, poor fit].
In the case of `Cc1ccc(-c2nc(CNC(=O)c3ccco3)cs2)cc1`, the cell number change is reported as -34.5%, the AC50 [2] is reported as 13 µM [falling, single point] and the AC50 [1] is reported as 13 µM [falling, partial curve, poor fit].
With `COc1ccc(C(=O)Nc2c(N)nc(SCC(=O)Nc3ccc(NC(C)=O)cc3)[nH]c2=O)cc1` the cell number change was 4.9%.
For `O=S(=O)(c1ccc(Oc2ccc(Cl)cc2)nc1)N1CCOCC1`, the cell number change was 82% and the AC50 [2] was 7.31 µM [rising, partial curve].
With `CCOc1cc(C(=O)Nc2ccon2)cc(OCC)c1OCC` the cell number change was 32.1%, the AC50 [2] was 3.66 µM [rising, single point] and the AC50 [1] was 9.2 µM [rising, single point].
Work on `CCCCNS(=O)(=O)c1ccc2nc(-c3cccnc3)cc(C(=O)NCCCOCC)c2c1` yielded a cell number change of -6.52%.
`COCCN(C(=O)COC(=O)CCc1nc2ccccc2s1)c1c(N)n(Cc2ccccc2)c(=O)[nH]c1=O` gave a cell number change of 9.28%.
In the case of `CCOC(=O)C1(CCc2ccccc2)CCN(C(=O)CN2C(=O)CSC2=O)CC1`, the cell number change is reported as 29.2% and the AC50 [2] is reported as 0.00517 µM [rising, full curve, poor fit].
For `CCOc1ccc(OCCCC(=O)NCCc2ccc(OC)cc2)cc1`, the cell number change was 7.03% and the AC50 [1] was 18.4 µM [falling, single point].
In the case of `CC1CN(CC(O)COc2ccc(C#N)cc2)CCN1CC(O)COc1ccc(C#N)cc1` (stereo not drawn), the cell number change is reported as 14.7% and the AC50 [1] is reported as 6.51 µM [rising, single point].
With `Cc1cc(-c2nnc(SCCC(=O)Nc3ccccc3)o2)no1` the cell number change was -15.3% and the AC50 [1] was 8.2 µM [falling, single point].
For `O=C(COc1coc(CN2CCc3ccccc3C2)cc1=O)Nc1ccc([N+](=O)[O-])cc1`, the cell number change was -75% and the AC50 [2] was 3.66 µM [falling, full curve].
In the case of `COc1cccc(N(CC(=O)NCc2cccnc2)S(C)(=O)=O)c1`, the cell number change is reported as 1.14%, the AC50 [2] is reported as 6.51 µM [falling, single point] and the AC50 [1] is reported as 6.51 µM [falling, single point].
Compound `CC(C)N1C(=O)CCC1C(=O)NCc1ccc(F)cc1Cl` (stereo not drawn) has a cell number change of 1.42%.
`COc1cccc(CN(C)C(=O)CC23CC4CC(CC(C4)C2)C3)c1OC` showed a cell number change of -17.1%.
In the case of `CC(C)(C)C(=O)c1no[n+]([O-])c1/C(=N/O)C(C)(C)C`, the cell number change is reported as -49.5%, the AC50 [2] is reported as 20.6 µM [falling, single point] and the AC50 [1] is reported as 23.1 µM [falling, single point].
With `CC(C)=CCCC1(C)C=Cc2c(c(C)cc3c2[nH]c2cc(O)ccc23)O1` (stereo not drawn) the cell number change was -72.5%, the AC50 [2] was 18.4 µM [falling, partial curve] and the AC50 [1] was 14.6 µM [falling, partial curve, poor fit].
For `O=C(CCCCC(=O)NCCCc1ccccc1)NCCCc1ccccc1`, the AC50 [1] was 16.4 µM [falling, partial curve, poor fit].
With `Cc1ccccc1C(=O)N1CCC(C(=O)Nc2nc3ccc(F)cc3s2)CC1` the cell number change was -6.08%, the AC50 [2] was 0.411 µM [rising, full curve] and the AC50 [1] was 0.58 µM [rising, partial curve].
In the case of `COc1cc(O)c(C(CC(=O)N2CCOCC2)c2ccc(N(C)C)cc2)c(OC)c1` (stereo not drawn), the cell number change is reported as 33.6% and the AC50 [1] is reported as 29.1 µM [rising, single point].
